Values of other authors in patent US20230293540A1, “ANTICOAGULANT COMPOUNDS, METHODS AND DEVICES FOR OPHTHALMIC USE” (Elixir Medical Corporation, priority 2020, published 2023).
For at least one compound, name, drawing or mass did not settle the structure.

System: cell proliferation
Settings: cited from earlier work

## CO[C@H]1C[C@@H]2CC[C@@H](C)[C@@](O)(O2)C(=O)C(=O)N2CCCC[C@H]2C(=O)O[C@H]([C@H](C)C[C@@H]2CC[C@@H](O)[C@H](OC)C2)CC(=O)[C@H](C)/C=C(\C)[C@@H](O)[C@@H](OC)C(=O)[C@H](C)C[C@H](C)/C=C/C=C/C=C/1C [Sirolimus, rapamycin]
  IC50: ~0.1 nM
  IC50 for cell proliferation: ~0.0001 ng/mg
